Measured values from patent US4404378A, “2-Substituted or unsubstituted aminocarbonyloxyalkyl-1,4-dihydropyridines” (Banyu Pharmaceutical Co., Ltd., priority 1981, dated 1983).

Key:
[1] = Acute toxicity, i.v., up-and-down method; conditions: mouse, in vivo, iv
DM strain male mice = test: Acute toxicity, i.v., up-and-down method; conditions: Table 1(a); i.v., male mice

SMILES: COC(=O)C1=C(C)NC(C)=C(C(=O)OC)C1c1ccccc1[N+](=O)[O-] [nifedipine, 2,6-Dimethyl-4-(2-nitrophenyl)-3,5-dimethoxycarbonyl-1,4-dihydropyridine]
- LD50 [1]: 11.5 mg/kg
- Acute toxicity LD50 (DM strain male mice): 11.5 mg/kg
